Measured values: publication PMC9110378
No constants are given. Whether binding was seen depends on the method and setting. Binding seen in cells or lysates may run through a third protein. Some results given as binding are weak or reduced against the parent protein; the word gives no strength.

The chains behind the UniProt entries cited, without tags or fusion partners.
UniProt Q9NP66: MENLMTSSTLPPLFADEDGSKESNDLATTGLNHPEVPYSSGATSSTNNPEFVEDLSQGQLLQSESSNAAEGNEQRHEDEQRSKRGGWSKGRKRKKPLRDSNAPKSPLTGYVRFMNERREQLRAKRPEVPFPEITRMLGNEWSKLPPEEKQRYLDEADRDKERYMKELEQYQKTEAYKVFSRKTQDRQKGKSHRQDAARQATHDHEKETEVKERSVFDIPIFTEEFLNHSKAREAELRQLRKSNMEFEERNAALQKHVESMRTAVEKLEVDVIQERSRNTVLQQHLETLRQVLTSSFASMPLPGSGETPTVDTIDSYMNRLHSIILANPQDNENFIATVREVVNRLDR

Target: T1, Scm-like with four malignant brain tumor domains 1 (SFMBT1) (human (in human colorectal cell lines)) (UniProt Q9UHJ3)
T1 sequence: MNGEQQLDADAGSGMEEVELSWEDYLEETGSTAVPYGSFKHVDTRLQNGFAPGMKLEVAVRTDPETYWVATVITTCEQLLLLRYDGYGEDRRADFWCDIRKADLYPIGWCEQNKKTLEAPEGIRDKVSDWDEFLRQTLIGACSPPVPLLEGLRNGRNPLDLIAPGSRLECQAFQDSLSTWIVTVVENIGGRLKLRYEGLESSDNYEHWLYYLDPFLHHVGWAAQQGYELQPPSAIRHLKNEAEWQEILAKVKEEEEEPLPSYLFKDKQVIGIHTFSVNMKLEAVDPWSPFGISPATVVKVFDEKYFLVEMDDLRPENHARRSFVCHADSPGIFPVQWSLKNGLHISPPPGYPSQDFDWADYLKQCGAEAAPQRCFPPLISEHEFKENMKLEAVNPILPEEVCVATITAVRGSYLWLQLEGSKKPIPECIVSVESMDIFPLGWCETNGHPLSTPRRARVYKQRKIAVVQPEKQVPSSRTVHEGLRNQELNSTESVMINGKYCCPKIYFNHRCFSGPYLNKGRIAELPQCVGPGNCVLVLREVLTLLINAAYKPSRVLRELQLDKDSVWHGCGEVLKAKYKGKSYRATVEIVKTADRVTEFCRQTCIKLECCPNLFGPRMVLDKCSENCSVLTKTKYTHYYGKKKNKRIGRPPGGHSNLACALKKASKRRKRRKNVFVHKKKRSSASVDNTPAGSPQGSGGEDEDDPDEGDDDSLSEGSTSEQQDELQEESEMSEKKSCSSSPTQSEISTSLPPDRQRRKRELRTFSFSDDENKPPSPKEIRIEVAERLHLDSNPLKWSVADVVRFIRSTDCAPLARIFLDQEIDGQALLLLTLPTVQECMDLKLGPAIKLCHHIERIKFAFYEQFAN
Assay: co-IP; cells lysed in RIPA buffer, incubated with protein A/G agarose and antibody for 4 h at 4 °C; eluted complexes analysed by western blotting; bait and cell line not stated

## high mobility group domain-containing protein 20 A (HMG20A) (from UniProt Q9NP66 1-347)
  binding: binds
